The text below walks through data of PubChem BioAssay AID248 (DTP/NCI, 2004).

SMILES strings stand for the structures. The list shows only some results of the screen, not a fair sample: it is rich in T/C values a quarter to a half above the control, in often repeated tests (any T/C) and in doses without a T/C. Further doses and runs are listed elsewhere. T/C is the treated group as % of the vehicle group. Some entries give survivors of the animals treated and no T/C: the source holds a T/C of zero for them, seemingly a mark for toxic or unscored doses. Some doses without a T/C left all or most animals alive at the check, yet need not have been tolerated: survival well below the control is almost never listed, so the zero probably covers shortened survival too. Survivors were counted at the toxicity check, usually on the fifth day, unless a day is given; later deaths do not show. Schedule codes are those of the source, read here as Q, the interval in days (D) or hours (H), X, the number of doses. Some schedules carry Z or #; the key to these is not given. For survival time, this PubChem deposit counts one and a half times the control or more as active, and values a quarter to a half above the control carry no call in these data; other NCI protocols may use other cut-offs. Some T/C values carry the count of animals alive at the toxicity check (mostly the fifth day); where none is given, no animal had died by that day. Some doses were run more than once; their values stand side by side, smallest first.

The test concerns L1210 leukemia ip in BDF1 mice, survival T/C. Description: NCI In Vivo Anticancer Drug Screen. Data for tumor model L1210 Leukemia (intraperitoneal) in B6D2F1 (BDF1) mice. The settings on record: T/C endpoint: mean survival time, higher T/C = longer survival.
The mark [1] stands for this setting: dose: 200.0 mg/kg/injection, schedule: Q01DX005 (ip), vehicle: saline.
Setting [2] is: dose: 100.0 mg/kg/injection, schedule: Q04DX003 (ip), vehicle: saline.
Setting [3] is: dose: 200.0 mg/kg/injection, schedule: Q04DX003 (ip), vehicle: saline.
The mark [4] stands for this setting: dose: 300.0 mg/kg/injection, schedule: Q01DX001 (ip), vehicle: saline.

For `CCCNC(=S)Nc1ccccc1`, for the setting “dose: 300.0 mg/kg/injection, schedule: Q01DX001 (ip), vehicle: other”, the survivor count is recorded as 3 of 6.

On to `CC(=O)OCC1OC(S[As](C)C)C(OC(C)=O)C(OC(C)=O)C1OC(C)=O` (centres undefined), for which the survivor count (dose: 400.0 mg/kg/injection, schedule: Q01DX009 (ip), vehicle: Klucel (hydroxypropylcellulose) (HPC)) is 4 of 6.

For the compound `O=C(Nc1ccc(NC(=O)Nc2cccc(C3=NCCCN3)c2)cc1)Nc1ccc(C2=NCCCN2)cc1`, the T/C is 125 % of control [5 of 6 alive] (dose: 5.0 mg/kg/injection, schedule: Q01DX Z (ip), vehicle: carboxymethylcellulose (CMC)); 137 % of control (dose: 7.5 mg/kg/injection, schedule: Q01DX Z (ip), vehicle: carboxymethylcellulose (CMC)); 137 % of control (dose: 10.0 mg/kg/injection, schedule: Q01DX Z (ip), vehicle: carboxymethylcellulose (CMC)). Also, the survivor count runs as follows: (dose: 34.0 mg/kg/injection, schedule: Q01DX Z (ip), vehicle: carboxymethylcellulose (CMC)) 0 of 6; (dose: 68.0 mg/kg/injection, schedule: Q01DX Z (ip), vehicle: carboxymethylcellulose (CMC)) 0 of 6.

For `CCN(CC)CCCC(C)Nc1ccc(NC(C)CCCN(CC)CC)c2c1C(=O)c1ccccc1C2=O` (centres undefined), the survivor count by setting is: (dose: 100.0 mg/kg/injection, schedule: Q01DX009 (ip), vehicle: saline) 1 of 3; (dose: 200.0 mg/kg/injection, schedule: Q04DX002 (ip), vehicle: saline) 0 of 3; (dose: 400.0 mg/kg/injection, schedule: Q04DX002 (ip), vehicle: saline) 0 of 3.

In the case of `CC1(C)OCC2SC(n3cnc4c(N)ncnc43)C(O)C2O1` (centres undefined), under setting [1], the survivor count is on record as 3 of 6.

As to `C=C(Br)CNC(=O)Nc1c2ccccc2nc2ccccc12`, the survivor count is given as 6 of 6 (dose: 25.0 mg/kg/injection, schedule: Q01DX009 (ip), vehicle: Klucel (hydroxypropylcellulose) (HPC)); 6 of 6 (dose: 50.0 mg/kg/injection, schedule: Q01DX009 (ip), vehicle: Klucel (hydroxypropylcellulose) (HPC)); 6 of 6 (dose: 75.0 mg/kg/injection, schedule: Q01DX009 (ip), vehicle: Klucel (hydroxypropylcellulose) (HPC)).

Consider `Cn1nc(CC(=O)O)c(C(N)=O)c1N`, for which the survivor count (dose: 100.0 mg/kg/injection, schedule: Q01DX009 (ip), vehicle: Klucel (hydroxypropylcellulose) (HPC)) is on record as 2 of 3.

Take `Nc1ncnc2c1c(C1=NCCCN1)cn2C1OC(CO)C(O)C1O` (centres undefined): the T/C was 127, 127 [5 of 6 alive], 136 % of control [5 of 6 alive] (dose: 25.0 mg/kg/injection, schedule: Q01DX005 (ip), vehicle: saline); 127 and 133 % of control [4 of 6 alive] (dose: 50.0 mg/kg/injection, schedule: Q01DX005 (ip), vehicle: saline); 135 % of control (dose: 100.0 mg/kg/injection, schedule: Q01DX005 (ip), vehicle: saline); 127 % of control [5 of 6 alive] under setting [1].

As to `OC(CC(O)(C(F)(F)F)C(F)(F)F)c1cccc(Cl)c1` (centres undefined), the survivor count (dose: 200.0 mg/kg/injection, schedule: Q01DX009 (ip), vehicle: gum acacia) was 3 of 6 and the survivor count (dose: 400.0 mg/kg/injection, schedule: Q04DX003 (ip), vehicle: gum acacia) is 2 of 6.

Regarding `O=C(CF)NC1C(O)OC(CO)C(O)C1O` (centres undefined), the survivor count runs as follows: under setting [2], 6 of 6; under setting [3], 0 of 6.

Regarding `Clc1ccccc1/C=N/Nc1c2ccccc2nc2ccccc12`, the survivor count is 4 of 4 (dose: 100.0 mg/kg/injection, schedule: Q01DX001 (ip), vehicle: saline) and 4 of 4 (dose: 200.0 mg/kg/injection, schedule: Q01DX001 (ip), vehicle: saline).

For the compound `C[N+]1(C)CCCC1`, the survivor count runs as follows: under setting [2], 0 of 6; under setting [3], 0 of 6; (dose: 400.0 mg/kg/injection, schedule: Q04DX003 (ip), vehicle: saline) 0 of 6.

`COc1ccc2c(c1O)C13C=C(C)C(=O)CC1C(C2)N(C)CC3` (centres undefined): the survivor count (dose: 150.0 mg/kg/injection, schedule: Q01DX001 (ip), vehicle: saline) is listed as 2 of 6 and the survivor count under setting [4] is 0 of 6.

In the case of `NC(N)=N/N=C/c1cccc([N+](=O)[O-])c1`, the survivor count (dose: 120.0 mg/kg/injection, schedule: Q01DX Z (ip), vehicle: carboxymethylcellulose (CMC)) is reported as 0 of 6.

Regarding `CCOc1ccc([N+](=O)[O-])cc1CNCCCl`, the survivor count runs as follows: (dose: 200.0 mg/kg/injection, schedule: Q04DX003 (ip), vehicle: Klucel (hydroxypropylcellulose) (HPC)) 6 of 6; (dose: 400.0 mg/kg/injection, schedule: Q04DX003 (ip), vehicle: Klucel (hydroxypropylcellulose) (HPC)) 6 of 6.

Consider `O=C1CC(c2ccccc2)C(c2ccccc2)C(=O)N1` (centres undefined), for which the survivor count under setting [4] is recorded as 1 of 6.
